These results are taken from patent publication US7238473.

The target in one data set is T1, TTP C124R (Homo sapiens) (UniProt P26651).
T1 sequence: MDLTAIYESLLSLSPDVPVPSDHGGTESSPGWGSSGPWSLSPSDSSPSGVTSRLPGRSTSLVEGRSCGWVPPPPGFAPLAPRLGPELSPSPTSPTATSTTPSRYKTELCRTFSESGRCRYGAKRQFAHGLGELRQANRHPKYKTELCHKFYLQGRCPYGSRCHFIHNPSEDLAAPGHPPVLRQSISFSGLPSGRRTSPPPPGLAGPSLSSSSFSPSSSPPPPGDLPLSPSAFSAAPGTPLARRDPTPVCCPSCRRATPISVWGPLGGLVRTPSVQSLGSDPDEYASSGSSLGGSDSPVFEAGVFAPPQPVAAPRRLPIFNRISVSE
In words: EMSA. The note with it: protein in a lysate after overexpression; protein details: C-terminal HA; label: 32P-UTP.

The target in another data set is T2, TTP C147R (Homo sapiens) (UniProt P26651).
T2 sequence: T1 sequence with R124C, C147R
Briefly: EMSA. The note with it: protein in a lysate after overexpression; protein details: C-terminal HA; label: 32P-UTP. (In general: Mobility shift assays separate free from complexed probe on a gel.)

Data set [1] deals with T3, TTP (tristetraprolin) wild type (Homo sapiens) (UniProt P26651).
T3 sequence: T1 sequence with R124C
Briefly: binding assay. The note with it: UV cross-linking, protein in a lysate after overexpression, label: 32P-UTP.

Data set [2] addresses T4, TTP(1-173) (Homo sapiens) (UniProt P26651).
T4 sequence: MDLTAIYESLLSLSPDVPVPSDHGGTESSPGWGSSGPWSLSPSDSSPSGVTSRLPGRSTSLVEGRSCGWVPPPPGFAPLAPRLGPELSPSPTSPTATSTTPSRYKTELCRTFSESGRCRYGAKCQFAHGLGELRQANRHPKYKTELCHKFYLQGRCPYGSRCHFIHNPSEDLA
Briefly: binding assay. The note with it: UV cross-linking; protein in a lysate after overexpression; protein details: C-terminal HA; label: 32P-UTP; variant of TNFa ARE probe 1309-1332.

Data set [3] addresses T5, TTP(97-173) (Homo sapiens) (UniProt P26651).
T5 sequence: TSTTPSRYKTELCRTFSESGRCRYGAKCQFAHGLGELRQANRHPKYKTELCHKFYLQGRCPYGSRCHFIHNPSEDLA
In words: binding assay. The note with it: UV cross-linking; protein in a lysate after overexpression; protein details: C-terminal HA; label: 32P-UTP; variant of TNFa ARE probe 1309-1332.

The target of data set [4] is T6, TTP(97-326) (Homo sapiens) (UniProt P26651).
T6 sequence: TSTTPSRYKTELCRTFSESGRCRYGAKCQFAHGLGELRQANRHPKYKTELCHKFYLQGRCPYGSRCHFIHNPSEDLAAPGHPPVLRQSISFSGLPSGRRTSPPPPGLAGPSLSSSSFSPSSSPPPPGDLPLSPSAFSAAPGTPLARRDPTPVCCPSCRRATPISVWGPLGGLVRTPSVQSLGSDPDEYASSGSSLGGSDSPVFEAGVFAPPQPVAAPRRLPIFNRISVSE
Briefly: binding assay. The note with it: UV cross-linking; protein in a lysate after overexpression; protein details: C-terminal HA; label: 32P-UTP; variant of TNFa ARE probe 1309-1332.

The target of data set [5] is T7, XC3H-3 (TIS11d/ERF2 homologue) (Xenopus laevis) (UniProt Q7ZXW9).
T7 sequence (looked up, limits assumed): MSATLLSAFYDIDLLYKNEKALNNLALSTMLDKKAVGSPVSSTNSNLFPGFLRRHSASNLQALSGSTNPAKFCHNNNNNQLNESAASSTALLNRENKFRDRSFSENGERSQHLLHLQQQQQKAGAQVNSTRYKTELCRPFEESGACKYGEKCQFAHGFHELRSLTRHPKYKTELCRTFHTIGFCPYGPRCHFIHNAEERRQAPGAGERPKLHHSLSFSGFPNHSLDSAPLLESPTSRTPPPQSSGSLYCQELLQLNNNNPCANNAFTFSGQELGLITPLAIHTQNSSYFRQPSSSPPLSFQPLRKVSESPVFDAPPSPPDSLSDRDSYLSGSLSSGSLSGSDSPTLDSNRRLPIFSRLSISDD
Briefly: binding assay. The note with it: UV cross-linking, protein in a lysate after overexpression, protein details: C-terminal HA, label: 32P-UTP.

The target of data set [6] is T8, cMG1 (TIS11b/ERF1 homologue) (Rattus norvegicus) (UniProt P17431).
T8 sequence (looked up, limits assumed): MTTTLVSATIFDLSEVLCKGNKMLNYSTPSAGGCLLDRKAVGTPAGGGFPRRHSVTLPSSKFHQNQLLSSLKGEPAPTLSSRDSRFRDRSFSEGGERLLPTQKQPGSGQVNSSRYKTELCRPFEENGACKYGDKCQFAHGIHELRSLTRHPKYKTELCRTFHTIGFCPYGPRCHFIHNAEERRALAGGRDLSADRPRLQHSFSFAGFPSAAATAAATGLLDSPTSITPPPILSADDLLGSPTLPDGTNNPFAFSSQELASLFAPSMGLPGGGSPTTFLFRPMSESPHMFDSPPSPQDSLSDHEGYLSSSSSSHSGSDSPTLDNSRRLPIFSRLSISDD
In words: binding assay. The settings on record: UV cross-linking, protein in a lysate after overexpression, protein details: C-terminal HA, label: 32P-UTP.

The target in data set [7] is T3, TTP (tristetraprolin) wild type (Homo sapiens). Briefly: EMSA. The settings on record: protein in a lysate after overexpression, label: 32P-UTP.
In a further data set the target is T9, TTP S228A (Homo sapiens) (UniProt P26651).
T9 sequence: T1 sequence with R124C, S228A
Briefly: EMSA. The note with it: protein in a lysate after overexpression; protein details: C-terminal HA; label: 32P-UTP.

For data set [8], the target named is T4, TTP(1-173) (Homo sapiens). Briefly: EMSA. The note with it: protein in a lysate after overexpression; protein details: C-terminal HA; label: 32P-UTP; variant of TNFa ARE probe 1281-1350.
Data set [9] has as its target T5, TTP(97-173) (Homo sapiens). Briefly: EMSA. The note with it: protein in a lysate after overexpression; protein details: C-terminal HA; label: 32P-UTP; variant of TNFa ARE probe 1281-1350.
Data set [10] addresses T6, TTP(97-326) (Homo sapiens). Briefly: EMSA. The note with it: protein in a lysate after overexpression; protein details: C-terminal HA; label: 32P-UTP; variant of TNFa ARE probe 1281-1350.
Setting [11] is: variant of TNFa ARE probe 1309-1332.
[12] abbreviates: variant of TNFa ARE probe 1281-1350.

Positions count from the first letter of the chain named. Where cells or extracts were used, other partners may take part. For some assays here: No signal at the amounts used counts as a negative. Where a protein sequence is shown, tags need not be part of it. For some assays here: Construct, isoform or probe ends are uncertain for at least one entry. For some assays here: Weaker means in comparison with the reference protein, sequence or condition of that experiment.

As to “GAAUUCACUGGAGCCUCGAAUGUCCAUUCCUGAGUUCUGCAAAGGGAGAGUGGUCAGGUUGCCUCUGUCUCAGAAUGAGGCUGGAUAAGAUCUCAGGCCUUCCUACCUUCAGACCUUUCCAGACUCUUCCCUGAGGUGCAAUGCACAGCCUUCCUCACAGAGCCAGCCCCCCUCUAUUUAUAUUUGCACUUAUUAUUUAUUAUUUAUUUAUUAUUU [TNFa probe 1110-1325 with 33 A tail]”, the binding result in the data set with TTP C124R (Homo sapiens) was “no binding”; in the data set with TTP C147R (Homo sapiens), “no binding”; in data set [1] (almost as well as 1281-1350, EMSA also positive), “binds”.
As to “UUGUUUGUUUGUUGUUUGUUUUUU [TNFa ARE probe 1309-1332 (A/G)]”, the binding result in data set [1] (setting [11]), in [2], in data set [3], in data set [4], in data set [5] (setting [11]) and in data set [6] (setting [11]) was “no binding” each time.
For “AGAUCUCAGGCCUUCCUACCUUCAGACCUUUCCAGACUCUUCCCUGAGGUGCAAUGCACAGCCUUCCUCACAGAGCCAGCCCCCCUCUAUUUAUAUUUGCACUU [TNFa probe 1197-1300 (one AUUUA)]”, the binding result in data set [1] (barely detectable, variant of TNFa probe 1197-1350) is recorded as “binds more weakly”.
With “AGAUCUCAGGCCUUCCUACCUUCAGACCUUUCCAGACUCUUCCCUGAGGUGCAAUGCACAGCCUUCCUCACAGAGCCAGCCCCCCUCUAUUUAUAUUUGCACUUAUUAUUUAUUAUUUAUUUAUUAUUUAUUUAUUUGCUUAUGAAUGUAUUUA [TNFa probe 1197-1350]”, the binding result in [7] is “binds”; with TTP C124R (Homo sapiens), “no binding”; with TTP C147R (Homo sapiens) it was “no binding”; with TTP S228A (Homo sapiens), “binds”.
Take “UUAUUUAUUUAUUAUUUAUUUAUU [TNFa ARE probe 1309-1332]”: the binding result in data set [7] (setting [12]), in data set [8], in [9], in data set [10], in data set [5] (setting [12]) and in [6] (setting [12]) was “binds” in each case.
